Here are results for one substance from PMC6238420.

The chains behind the UniProt entries cited, without tags or fusion partners.
UniProt O08586: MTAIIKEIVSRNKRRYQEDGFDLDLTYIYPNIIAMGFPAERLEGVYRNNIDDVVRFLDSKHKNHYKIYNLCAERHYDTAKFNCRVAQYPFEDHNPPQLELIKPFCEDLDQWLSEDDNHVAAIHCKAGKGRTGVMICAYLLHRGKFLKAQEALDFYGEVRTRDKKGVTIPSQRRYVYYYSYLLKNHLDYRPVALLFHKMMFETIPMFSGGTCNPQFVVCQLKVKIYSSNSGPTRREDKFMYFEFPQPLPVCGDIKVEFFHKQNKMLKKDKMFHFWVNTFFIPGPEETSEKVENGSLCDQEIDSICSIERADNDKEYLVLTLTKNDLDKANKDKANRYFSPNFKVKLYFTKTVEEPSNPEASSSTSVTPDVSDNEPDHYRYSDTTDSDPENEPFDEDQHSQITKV
UniProt O35445: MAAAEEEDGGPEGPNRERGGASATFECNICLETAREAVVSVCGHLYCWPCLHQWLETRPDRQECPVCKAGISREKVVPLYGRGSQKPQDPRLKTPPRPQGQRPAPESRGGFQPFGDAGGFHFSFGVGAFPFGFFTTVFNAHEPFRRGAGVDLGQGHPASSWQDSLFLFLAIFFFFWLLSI

These are yes or no findings as the source states them, for the method shown. In cells and extracts the contact can be indirect. Some binding calls cover weakened binding; strength is not graded here.

The test has as its target PTEN, endogenous in Smo^KO mouse pancreatic fibroblasts (mouse (endogenous in Smo^KO pancreatic fibroblasts)) (UniProt O08586). Nature of the test: co-IP; Smo^KO fibroblasts lysed in non-denaturing extraction buffer; immunoprecipitation with PTEN antibody (IgG as control), PRO-A magnetic beads; Western blot with RNF5 antibody. For orientation: Immunoblotting shows a protein as a band on a membrane.

Turning to “RNF5, endogenous in Smo^KO mouse pancreatic fibroblasts (from UniProt O35445 1-180)”, the binding entry is “binds”.
